Assay results taken from the supplement of paper PMC6089552.
Shown are results outside the selection of hits, which stands elsewhere.

Test system: A673/TR/shEF
Test: cell viability (LOESS-normalised, relative to median of negative controls) (log2 ratio); higher = more viable cells (less compound effect), active = hit call of the paper (over 3 MAD below the median)
Settings: treatment time: 72 h
In short: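 Doxycycline, present or absent from 24 h before compounds, was used to induce EWS-FLI1 shRNA knockdown in A673/TR/shEF Ewing sarcoma cells at 1,500 per well in 384-well plates. Cells then received library compounds at two or more concentrations, or DMSO controls, for three days. Viability was measured by CellTiter-Glo luminescence on an Envision reader, and per-plate LOESS correction, division by the negative-control median and log2 transformation followed.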

Measured: cell viability (log2)

CN1C2CCC1CC(OC(=O)C(O)c1ccccc1)C2 (stereo not drawn)
inactive: 0.25 µM, library screen: screen1, EWS-FLI1 expression: high (no doxycycline) 0.123 | 0.25 µM, library screen: screen1, EWS-FLI1 expression: low (doxycycline-induced shRNA knockdown) 0.0672 | 0.25 µM, library screen: screen2, EWS-FLI1 expression: high (no doxycycline) 0.161 | 0.25 µM, library screen: screen2, EWS-FLI1 expression: low (doxycycline-induced shRNA knockdown) 0.0942 | 2.5 µM, library screen: screen1, EWS-FLI1 expression: high (no doxycycline) 0.205 | 2.5 µM, library screen: screen1, EWS-FLI1 expression: low (doxycycline-induced shRNA knockdown) 0.183 | 2.5 µM, library screen: screen2, EWS-FLI1 expression: high (no doxycycline) 0.182 | 2.5 µM, library screen: screen2, EWS-FLI1 expression: low (doxycycline-induced shRNA knockdown) 0.0952
